Results as given in PubChem BioAssay AID2685 (National Center for Advancing Translational Sciences (NCATS), 2010).
Several values for one entry are separate records, joined by “and”; a condition that tells them apart may be missing. Equal entries are not always repeated. In all, about 320,000 compounds went through this assay and about 2,100 (0.66%) were called active. The shares of active, inactive and inconclusive entries below differ from those in the screen. The call rests on the fitted dose curve; in most records, active means well fitted inhibition curve with a large enough effect in the signal ratio, with a control signal flat (not every such curve was filed as active); inconclusive means small, poorly fitted or top-dose-only effect, or effect the other way, or a change in a side signal; inactive means flat fitted curve, though single readings scatter; the % refers to the signal ratio. Potencies of inconclusive entries are doubtful fits and often do not repeat.

Assay: qHTS Assay for Lipid Storage Modulators in Drosophila S3 Cells
Settings: BODIPY lipid droplet fluorescence, 18-24 h, cells fed with added oleic acid; lipid storage change, negative = inhibition: at 46.1 µM (top of the series) unless noted
Method in brief: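 Drosophila S3 cells loaded with oleic acid (400 uM, as added) and compounds at several concentrations; lipid droplets imaged by 488-nm laser-scanning cytometry, 500–530 nm intensity and object ratio to cell channel. Percent activity normalized to 20 uM Triacsin C.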
On the % scale 0 is the no-effect control and ±100 the full control effect; potency means the concentration at half of the fitted maximal effect.

Structure (SMILES) | Potency | lipid storage change, negative = inhibition | outcome
CCCCCn1c(NC(=O)c2ccco2)c(C(=O)OCC)c2nc3ccccc3nc21 | inconclusive: 5.17 µM [activator, partial curve] | – | –
O=C1NCCN2CCCC12 (stereo not drawn) | – | inconclusive: -51.1% | –
O=C1NC(=O)N(c2ccc3c(c2)OCO3)C(=O)/C1=C/c1ccsc1 | – | inconclusive: -14.4% | –
Cn1c(O)c(C=NCCCN2CCCC2=O)c(=O)n(C)c1=O | – | inconclusive: -11.1% | –
O=C1NC(=O)C(=Cc2ccsc2)C(=O)N1 | – | inactive: -2.16% | –
CCCCCn1c(=O)c(C(=O)NCc2ccccc2)c(O)c2ccccc21 | – | inconclusive: -40.3% | –
COc1ccc(NC(=O)N2C[C@@H]3C[C@@H](C2)c2cccc(=O)n2C3)c(OC)c1 | inconclusive: 6.51 µM [falling, single point] | – | –
CSc1nc(N)c(N=Nc2ccc([As](=O)(O)O)cc2)c(=O)[nH]1 | – | inconclusive: -21.8% | –
CC1=CC(=O)NP(=O)(Oc2ccc3ccccc3c2)N1 (stereo not drawn) | – | inconclusive: 7.79% | –
N=Cc1c(O)n(-c2ccccc2)c(=O)n(-c2ccccc2)c1=O | – | inconclusive: 69.7% | –
Cn1c(O)c(C(=Nc2ccccc2)SCc2ccc(Cl)cc2)c(=O)n(C)c1=O | inconclusive: 32.6 µM [falling, single point] | – | –
CC1CCN2c3nc4ccccn4c(=O)c3CC3(C(=O)N(C)C(=O)N(C)C3=O)C2C1 (stereo not drawn) | – | inconclusive: -0.28% | –
CN1C(=O)N(C)C(=O)C2(Cc3ccccc3N3CCCC32)C1=O (stereo not drawn) | – | inconclusive: 44% | –
Cc1ccc2cc(C=C(C#N)C#N)c(Cl)nc2c1 | – | inconclusive: 15.3% | –
CCCCc1ncc(CN2CCCC(C(=O)c3ccc(SC)cc3)C2)[nH]1 (stereo not drawn) | – | inconclusive: -68.2% | –
Cn1cccc1/C=C1/C(=O)NC(=O)N(Cc2ccc(F)cc2)C1=O | inconclusive: 0.164 µM [falling, partial curve, poor fit] | – | –
Cc1ccc(S(=O)(=O)N2CCN(C(=O)COC(=O)Cc3ccccc3)CC2)c(C)c1 | – | – | inconclusive [setting not given]
CN1CCN(c2ccc(S(C)(=O)=O)cc2[N+](=O)[O-])CC1 | – | inconclusive: -37% | –
Oc1ccc2c3c1O[C@H]1[C@@H](O)CC[C@@]4(O)[C@@H](C2)N(CC2CCC2)CC[C@]314 | – | inconclusive: -14% and inconclusive: -44.9% | –
CCc1nc2ccc(N3CCN(C)CC3)cc2nc1CC | inconclusive: 0.092 µM [falling, full curve, poor fit] | – | –
COC1=CC(=O)O[C@@H](/C=C/c2ccccc2)C1 | inconclusive: 29.1 µM [activator, single point] | – | –
CC(C)(C)N(NC(=O)c1ccccc1)C(=O)c1ccccc1 | – | inactive: 3.31% | –
O=c1[nH]c(=O)n(Cc2ccc(F)cc2)c(O)c1/C=N/Nc1ccccc1 | – | inconclusive: 29% | –
CN1CCC(N(C)c2ncnc3ccc(Br)cc23)CC1 | – | inconclusive: -3.25% | –
COc1ccc(Cn2c(=O)oc3ccc(C)cc32)cc1OC | inconclusive: 1.64 µM [activator, partial curve] | – | –
COc1cccc(CN2CCNCC2)c1OC | inconclusive: 3.66 µM [falling, full curve] | – | –

Some values from the entries so far:
In lipid storage change, negative = inhibition, CC1CCN2c3nc4ccccn4c(=O)c3CC3(C(=O)N(C)C(=O)N(C)C3=O)C2C1 (stereo not drawn) is entered as inconclusive: -0.28%
In lipid storage change, negative = inhibition, O=C1NC(=O)N(c2ccc3c(c2)OCO3)C(=O)/C1=C/c1ccsc1 is entered as inconclusive: -14.4%
In lipid storage change, negative = inhibition, O=C1NC(=O)C(=Cc2ccsc2)C(=O)N1 is entered as inactive: -2.16%
In lipid storage change, negative = inhibition, CSc1nc(N)c(N=Nc2ccc([As](=O)(O)O)cc2)c(=O)[nH]1 is entered as inconclusive: -21.8%

Carrying on.

Structure (SMILES) | Potency | lipid storage change, negative = inhibition | outcome
C=CCn1c(O)c(/C(C)=N/N2CCCCC2)c(=O)[nH]c1=O | – | inconclusive: 50.4% | –
N#CCCn1cc(C(=O)O)c(-c2cccc([N+](=O)[O-])c2)n1 | – | inconclusive: 8.67% | –
COc1ccc(-c2cc(=NCCCCCC(=O)O)c3cc(C)ccc3o2)cc1 | – | inconclusive: -8.96% | –
COc1ccc(C(=O)C23CN4CN(CN(C4)C2)C3)cc1 | – | inactive: 0.471% | –
CN(C)P(=O)(CCl)Nc1ccccc1 (stereo not drawn) | inconclusive: 0.146 µM [falling, full curve, poor fit] | – | –
COc1ccc(OC)c(/C=N/OC(=O)Nc2ccc(Cl)cc2)c1 | – | inconclusive: 2.26% | –
CC(=O)Nc1ccccc1C(=O)OCc1ccc(F)cc1 | – | inconclusive: 12.7% | –
CN(Cc1ccccc1)C(=O)Cn1c(=O)oc2cc(S(=O)(=O)NCc3ccccc3)ccc21 | inconclusive: 0.82 µM [rising, full curve] | – | –
CCN1C(=O)NC(=O)/C(=C\c2cn(CC(=O)N3CCCCC3C)c3ccccc23)C1=O (stereo not drawn) | – | inconclusive: -4.77% | –
CC(C)COC(=O)n1c(=O)oc2cc(S(=O)(=O)N3CCCCC3)ccc21 | inconclusive: 6.51 µM [falling, single point] | – | –
Cn1c(O)c(C=Nc2ccccc2-c2ccccc2)c(=O)n(C)c1=O | – | inconclusive: 39.9% | –
O=S(=O)(c1ccc(F)cc1)N1CCCC1c1cccnc1 (stereo not drawn) | – | inconclusive: 8.2% | –
Cc1ncc(CN2CCCC(C(=O)c3ccc(C(C)(C)C)cc3)C2)s1 (stereo not drawn) | – | inconclusive: -18.3% | –
Cc1cc(OCC(=O)O)c2c3c(c(=O)oc2c1)CCCC3 | – | inconclusive: -32.7% | –
CN1CCc2cc3c(cc2[C@H]1[C@@H]1OC(=O)c2c1ccc1c2OCO1)OCO3 | – | inconclusive: 26% | –
O=c1cccc2n1CC1CC2CN(Cc2ccc3c(c2)OCO3)C1 (stereo not drawn) | – | inconclusive: -7.83% | –
CNC(=O)Nc1ccc(C(O)(C(=O)OC)C(F)(F)F)cc1 (stereo not drawn) | inconclusive: 6.51 µM [rising, partial curve, poor fit] | – | –
CN(C)C(=O)Oc1cccc(-c2cn3cc(Cl)ccc3n2)c1 | – | inconclusive: 27% | –
C/C=C/c1ccc2c(c1)OCO2 | inconclusive: 3.26 µM [falling, single point] | – | –
COc1cc(NC(=O)CCS(=O)(=O)c2ccc3c(c2)oc(=O)n3C)cc(OC)c1 | inconclusive: 1.3 µM [activator, full curve] | – | –
O=C1NC(=O)C(=Cc2ccc(N3CCOCC3)cc2)C(=O)N1 | – | inconclusive: -10.9% | –
CN(CCc1ccccc1)Cc1c[nH]c2ccccc12 | – | inconclusive: -28.8% | –
O=C(Cc1ccccc1)N1CCN(Cc2ccc(F)cc2)CC1 | – | inconclusive: 8.64% | –
O=P1(NC2CCCC2)COc2ccccc2OC1 | – | inconclusive: -47.3% | –
Cn1c(O)c(/C=N/NC(=O)c2ccncc2)c(=O)[nH]c1=S | – | inconclusive: 4.5% | –
CC1CCCCC1NC1CCN(C)CC1 (stereo not drawn) | inconclusive: 6.51 µM [falling, single point] | – | –

Structure (SMILES) | Potency | lipid storage change, negative = inhibition | outcome
O=c1[nH]c2ccccc2c(=O)n1-c1ccc(Cl)cc1Cl | – | inconclusive: -12.7% | –
CC(C)CN1CCN(Cc2ccc(F)cc2Cl)CC1CCO (stereo not drawn) | inconclusive: 0.103 µM [falling, full curve, poor fit] | – | –
CCC(=NCCN1CCCCC1)c1c(O)n(C)c(=O)n(C)c1=O | inconclusive: 29.1 µM [falling, single point] | – | –
Oc1ccc(Cl)c(Cl)c1Cl | – | inconclusive: 13.4% | –
Cc1cccc(-n2c(O)c(C=NCc3cccnc3)c(=O)[nH]c2=O)c1C | – | inconclusive: -127% | –
O=C1NC(=O)N(C2CCCCC2)C(=O)C1C1c2ccccc2C(=O)N1Cc1ccccc1 (stereo not drawn) | inconclusive: 0.116 µM [falling, full curve] | – | –
COC(=O)C(O)(c1ccc(N(C)C(=O)c2ccc(Cl)c(Cl)c2)cc1)C(F)(F)F (stereo not drawn) | – | inconclusive: 31.5% | –
COC(=O)C1=C(c2ccc(-c3ccccc3)c(F)c2)C[C@@H]2CC[C@H]1N2C(=O)NC(C)C | – | inconclusive: -77.6% | –
CN(C(=O)Oc1ccc(C(=O)c2ccc(Cl)cc2)cc1)c1ccccc1 | – | inconclusive: 35% | –
COc1cc2ccc(=O)oc2c2ccoc12 | inconclusive: 8.2 µM [activator, partial curve] | – | –
O=C(Cn1ccc2ccccc2c1=O)NCC(=O)N1CCC2(CC1)OCCO2 | – | inconclusive: -0.857% | –
COc1ccccc1OCC(=O)N1CCCC(N2CCN(c3ccc(F)cc3)CC2)C1 (stereo not drawn) | – | inconclusive: 79.8% | –
[O-]c1ccccc1-[n+]1c(-c2ccccc2)cc(-c2ccccc2)cc1-c1ccccc1 | inconclusive: 6.51 µM [falling, single point] | – | –
Brc1ccc(-[n+]2c(-c3ccccc3)cc(-c3ccccc3)cc2-c2ccccc2)cc1 | – | inconclusive: -29.3% | –
COc1cc(CN2CCN(c3cc(C)ccc3C)CC2)ccc1O | inconclusive: 0.259 µM [activator, partial curve, poor fit] | – | –
CCOc1cc2c(cc1OCC)-n1cccc1C(c1cccc(OCC)c1O)NC2 (stereo not drawn) | inconclusive: 0.92 µM [activator, single point] | – | –
COCCN1C(=O)NC(=O)/C(=C\c2ccc(F)cc2)C1=O | – | inconclusive: -28.6% [at 9.22 µM] | –
O=C1NC(=O)C2(Cc3ccccc3N3CCCC32)C(=O)N1Cc1ccccc1 (stereo not drawn) | inconclusive: 29.1 µM [falling, single point] | – | –
Nc1nonc1C(=O)N/N=C/c1ccc([N+](=O)[O-])o1 | – | inconclusive: -36% | –
Cc1ccc(-n2c(O)c(C=NC3CCCC3)c(=O)[nH]c2=O)c(C)c1 | – | inconclusive: -26.8% | –
COc1ccc(/C=C/C(=O)NC(=S)N2C[C@H]3C[C@H](C2)c2cccc(=O)n2C3)cc1 | – | inconclusive: 113% | –
CCC1CCCCN1C(=O)Cn1c(=O)oc2ccccc21 (stereo not drawn) | active: 1.46 µM | – | –
Cc1c(O)ccc(C(=O)CN2CC(C)OC(C)C2)c1O (stereo not drawn) | – | inconclusive: 4.48% | –
COC(=O)C1=C(c2cccc(NC(C)=O)c2)C[C@@H]2CC[C@H]1N2C | inconclusive: 29.1 µM [activator, single point] | – | –
Cn1cc(C(O)CN2CCCCC2)c2ccccc21 (stereo not drawn) | inconclusive: 29.1 µM [activator, single point] | – | –
C1CCC2S[C@H]3CCCCC3NC2C1 (stereo partly drawn) | inconclusive: 0.103 µM [rising, full curve, poor fit] | – | –
